# The campaign covered roughly 320,000 compounds. About 22,000 (6.9%) were called active. Inconclusive results, whose numbers are uncertain, are shown with a selection of clear calls. Calls follow the shape of the dose curve; as a rule, active = well fitted inhibition curve with a large enough effect; inconclusive = small, poorly fitted or top-dose-only effect, or another doubt; inactive = no such curve, though single readings can be large or run the other way. A potency beside an inconclusive call is a rough fit, not a confirmed value.
# Test: Primary qHTS for delayed death inhibitors of the malarial parasite plastid, 96 hour incubation
# Details: P. falciparum luciferase reporter growth; series mostly up to 28.7 µM
# Outline: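 Delayed-death screen, second-generation endpoint: infected erythrocytes, 2% hematocrit, 0.05% parasitemia final; 96 hours at 37 C, 5% CO2; luciferase detection reagent; luminescence decrease equals reduced growth.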
# Potency is read from the fitted curve at half-maximal effect.
row,SMILES,Potency
1,COC(=O)Cn1nc(-c2ccccc2)n(-c2ccccc2)c1=S,"inconclusive: 18.5 µM [inhibitor, single point]"
2,Cc1ccc(-c2nnc(NCc3ccccc3)c3ccccc23)cc1,"inconclusive: 13.1 µM [inhibitor, single point]"
3,COc1ccc(CNC(=O)CC2C(=O)NCCN2C2Cc3ccccc3C2)cc1 (stereo not drawn),inactive
4,Cc1nc(NN)c2c3c(sc2n1)COC(C)(C)C3,"inconclusive: 5.22 µM [inhibitor, partial curve]"
5,Cn1ncc(Cl)c1C(=O)N/N=C/c1cc2c(cc1[N+](=O)[O-])OCO2,"inconclusive: 4.15 µM [inhibitor, single point]"
6,CCCOc1ccc(-c2nc(N)n[nH]2)cc1,"inconclusive: 11.7 µM [inhibitor, single point]"
7,COc1cccc(C(=O)C2CCCN(Cc3cccc(-n4nc(C)cc4C)c3)C2)c1 (stereo not drawn),"inconclusive: 13.1 µM [inhibitor, partial curve, poor fit]"
8,CN(Cc1nc2ccccc2c(=O)[nH]1)C(=O)c1cccc(S(=O)(=O)N2CCCC2)c1,inactive
9,O=C(CSc1nnc(-c2ccccc2)o1)NCC1CCCCC1,"inconclusive: 0.828 µM [inhibitor, partial curve, poor fit]"
10,OC(CN1CCCCC1)Cn1c2ccccc2c2cc(Br)ccc21 (stereo not drawn),active: 9.28 µM
11,COc1ccc(CCN2CC(C(=O)NCCc3cccnc3)CCC2=O)cc1 (stereo not drawn),"inconclusive: 0.465 µM [inhibitor, partial curve, poor fit]"
12,NNC(=S)NC1CC2CC1C1C=CCC21 (stereo not drawn),"inconclusive: 5.86 µM [inhibitor, partial curve]"
13,CC(C)N(Cc1ccccc1)C(=O)CN1C(=O)NC(Cc2ccccc2)(c2ccccc2)C1=O (stereo not drawn),active: 11.7 µM
14,CCOC(C(=O)OCCCN(CC)CC)(c1ccccc1)c1ccccc1,"inconclusive: 4.15 µM [inhibitor, single point]"
15,Cc1ccc(CNC(=O)C(=O)NCCC2CCCCN2S(=O)(=O)c2cccs2)cc1 (stereo not drawn),"inconclusive: 11.7 µM [inhibitor, single point]"
16,COc1ccc(/C=C2\Sc3ccc(C(=O)N4CCOCC4)cc3N(C)C2=O)cc1,"inconclusive: 10.4 µM [inhibitor, single point]"
17,COc1cc(/C=C/C(=O)OCc2cn3cc(Cl)ccc3n2)ccc1O,"inconclusive: 11.7 µM [inhibitor, single point]"
18,COc1ccc2oc(=O)c(-c3nc(C)cs3)cc2c1,inactive
19,CC1CCCC(NC(=S)NC(=O)c2ccccc2Br)C1C (stereo not drawn),"inconclusive: 18.5 µM [inhibitor, single point]"
20,CCCOC(c1ccccc1)(c1ccc(C(F)(F)F)cc1)C(Oc1nc(C)cc(C)n1)C(=O)O (stereo not drawn),"inconclusive: 7.38 µM [inhibitor, partial curve]"
21,Cc1ccccc1C(=O)OCC(=O)N(C)c1ccccc1,inactive
22,CCn1cnc2sc(C(=O)Oc3ccc(Br)cc3)c(C)c2c1=O,active: 2.94 µM
23,COC(=O)c1ccc(Nc2c([N+](=O)[O-])ccc3nonc23)cc1,"inconclusive: 9.28 µM [inhibitor, partial curve]"

# Gathered by group, the entries above containing an NH in an aromatic ring.
row,SMILES,Potency
6,CCCOc1ccc(-c2nc(N)n[nH]2)cc1,"inconclusive: 11.7 µM [inhibitor, single point]"
8,CN(Cc1nc2ccccc2c(=O)[nH]1)C(=O)c1cccc(S(=O)(=O)N2CCCC2)c1,inactive

# Remaining list, next part:

row,SMILES,Potency
1,S=c1[nH]nc(-c2cc(-c3ccco3)[nH]n2)n1-c1cccc2ccccc12,"inconclusive: 0.0026 µM [inhibitor, full curve, poor fit]"
2,Cc1nn(-c2ccccc2)c2sc(C(=O)NNC(=O)COc3ccccc3)cc12,inactive
3,CCCCC1(Cc2ccc(OC)c([N+](=O)[O-])c2)C(=O)N(c2ccccc2)N(c2ccccc2)C1=O,"inconclusive: 2.33 µM [inhibitor, full curve]"
4,Cc1ccccc1OCC(=O)NCC(=O)OCC(=O)c1ccc([N+](=O)[O-])cc1,inactive
5,N#CCCN(C(=S)NC(=O)c1cccs1)c1ccccc1F,inactive
6,Nc1nc(SCC(=O)Nc2cccc(Oc3ccccc3)c2)n[nH]1,inactive
7,Cc1nn(Cc2c(Cl)cccc2Cl)c(C)c1NC(=O)c1cc(C(C)C)on1,active: 9.28 µM
8,COc1cccc(NC(=O)CN(C)C(=O)c2cc(S(=O)(=O)N3CCCCCC3)ccc2OC)c1,"inconclusive: 18.5 µM [inhibitor, single point]"
9,Nc1c(C(=O)C2CC2)sc2nc3c(cc12)CCC3,inactive
10,Cc1nc2oc3c(NCc4ccccc4)ncnc3c2c2c1COC(C)(C)C2,"inconclusive: 18.5 µM [inhibitor, single point]"
11,N#Cc1c(NC(=O)CCC(=O)O)sc2c1CCCCC2,"inconclusive: 10.4 µM [inhibitor, single point]"
12,Fc1ccc(CSc2nnc3ccc(-c4ccncc4)nn23)cc1,"inconclusive: 2.62 µM [inhibitor, full curve, poor fit]"
13,O=C(O)COc1ccc(/C=N/NC(=O)Cc2ccc(Cl)cc2)cc1,inactive
14,O=c1cc(CN2CCN(c3cccc(Cl)c3)CC2)c2cc(O)c(-c3ccccc3)cc2o1,"inconclusive: 1.65 µM [inhibitor, full curve, poor fit]"
15,Cc1cc(NN)nc2ccc(Cl)cc12,"inconclusive: 4.15 µM [inhibitor, full curve, poor fit]"
16,Cc1cc(C)cc(CC2CC(=O)N(c3cc(C)on3)C2=O)c1 (stereo not drawn),inactive
17,COc1ccc(NC(=O)CCN2C(=O)C3C4CCC(C4)C3C2=O)cc1 (stereo not drawn),inactive
18,CC(C)(C)C1CCc2sc(C(=O)NNC(=O)CCl)cc2C1 (stereo not drawn),"inconclusive: 7.38 µM [inhibitor, partial curve, poor fit]"
19,CC(C)Cc1nnc(NC(=O)CCC(=O)N2CCN(CCOC(c3ccccc3)c3ccccc3)CC2)s1,"inconclusive: 5.86 µM [inhibitor, partial curve]"
20,COc1ccc(OC)c(C2=Nn3c(nnc3-c3cc(C)[nH]n3)SC2)c1,"inconclusive: 11.7 µM [inhibitor, partial curve, poor fit]"
21,O=C(CSc1nc(C(F)(F)F)cc(=O)[nH]1)NCc1ccc2c(c1)OCO2,inactive
22,O=C(c1ccc(Cl)cc1)c1c[nH]c(C(=O)NNc2cccc(Cl)n2)c1,"inconclusive: 18.5 µM [inhibitor, single point]"
23,O=C(Nc1nncs1)c1cc(-c2ccncc2)nc2ccc(Cl)cc12,"inconclusive: 13.1 µM [inhibitor, single point]"

row,SMILES,Potency
1,CN(C)c1ccccc1C(=O)N1CCCC(C(=O)c2ccc3ccccc3c2)C1 (stereo not drawn),"inconclusive: 18.5 µM [inhibitor, single point]"
2,COCCOC(=O)C1=C(C)N=C2SCCC(=O)N2C1c1cccs1 (stereo not drawn),"inconclusive: 20.8 µM [inhibitor, partial curve, poor fit]"
3,COc1ccc(NC(=O)c2cc(-c3ccccc3O)n[nH]2)cc1Cl,active: 2.08 µM
4,CSc1ccc(Cl)c(C(=O)N2CCN(c3ncccn3)CC2)c1,inactive
5,C=C(C)CNC(=S)/N=c1\scc(C)n1CC,"inconclusive: 18.5 µM [inhibitor, single point]"
6,CCCNC(=S)N1CCN(c2nc(-c3ccc(C)cc3)cs2)CC1,"inconclusive: 18.5 µM [inhibitor, single point]"
7,COCCNC(=O)CCc1c(C)nc2c(c(C)nn2-c2ccc(C)cc2)c1C,"inconclusive: 4.15 µM [inhibitor, single point]"
8,COc1ccc(NC(=O)c2nc[nH]c2C(=O)N2CCN(c3ccccc3)CC2)cc1,"inconclusive: 6.57 µM [inhibitor, partial curve, poor fit]"
9,COc1ccc2c3c1O[C@H]1C[C@@H](O)C=C[C@@]31CCN(C)C2,"inconclusive: 19 µM [inhibitor, single point]"
10,COC(=O)C1=C(c2ccc(OC)c(OC)c2)C[C@@H]2CC[C@H]1N2C(=O)NCc1ccc(F)cc1,"inconclusive: 9.28 µM [inhibitor, single point]"
11,COC(=O)c1cc(OC)c(OC)cc1NC(=O)CCc1ccc(C)o1,inactive
12,COc1ccc(CCNC(=O)COc2ccc(S(=O)(=O)NC3CCCCC3)cc2Cl)cc1OC,inactive
13,COc1cccc(-c2cc(C(=O)Nc3ccncc3)c3ccccc3n2)c1,"inconclusive: 10.4 µM [inhibitor, single point]"
14,COc1ccc(S(=O)(=O)N2CCN(Cc3ccc4c(c3)OCO4)CC2)cc1F,"inconclusive: 14.7 µM [inhibitor, partial curve]"
15,CCN(CC)S(=O)(=O)c1cc(NC(=O)CNc2cccc(S(=O)(=O)N3CCOCC3)c2)ccc1C,"inconclusive: 10.4 µM [inhibitor, single point]"
16,O=C(NCCC(=O)N(Cc1ccco1)Cc1cccs1)c1ccccc1Cl,"inconclusive: 11.7 µM [inhibitor, single point]"
17,COc1cc(Cl)ccc1OCc1cc(C(=O)N2CCC(N(C)C)C2)no1 (stereo not drawn),"inconclusive: 6.57 µM [inhibitor, partial curve]"
18,O=[N+]([O-])c1cc(C=Nc2cccc3c(O)cccc23)ccc1Cl,inactive
19,CCC(C(=O)Nc1cc(OC)c(NC(=O)c2ccccc2)cc1OC)c1ccccc1 (stereo not drawn),"inconclusive: 5.86 µM [inhibitor, partial curve, poor fit]"
20,CC(c1cccs1)N(Cc1ccco1)C(=S)Nc1ccccc1Cl (stereo not drawn),"inconclusive: 10.4 µM [inhibitor, single point]"
21,CCN(CCNCC(O)COCc1ccc(Cl)cc1)c1cccc(C)c1 (stereo not drawn),"inconclusive: 9.28 µM [inhibitor, single point]"
22,COc1ccc(C2/C(=C(\O)c3cc(C)ccc3C)C(=O)C(=O)N2CCN(C)C)cc1OC (stereo not drawn),"inconclusive: 0.657 µM [inhibitor, full curve, poor fit]"

# 3 compounds drawn at random from those above, as already listed:
row,SMILES,Potency
21,CCN(CCNCC(O)COCc1ccc(Cl)cc1)c1cccc(C)c1 (stereo not drawn),"inconclusive: 9.28 µM [inhibitor, single point]"
16,O=C(NCCC(=O)N(Cc1ccco1)Cc1cccs1)c1ccccc1Cl,"inconclusive: 11.7 µM [inhibitor, single point]"
11,COC(=O)c1cc(OC)c(OC)cc1NC(=O)CCc1ccc(C)o1,inactive
